1 molecule from PMC5572924 can be followed below.

This test deals with mature ComGC of Streptococcus pneumoniae fused to the T25 or T18 fragment of Bordetella pertussis adenylate cyclase (CyaA) (S. pneumoniae). Put plainly: two-hybrid; bacterial adenylate cyclase two-hybrid (BACTH) in E. coli BTH101; T25 (pKT25) and T18 (pUT18C) fusions; beta-galactosidase activity in liquid culture in Miller units; cultures grown O/N at 30 °C.

Results are given in words; binding and its absence hold for the method and conditions named. Where a sequence is shown, tags or fusion partners need not be part of it.

B1: mature PulG of Klebsiella oxytoca fused to the T25 or T18 fragment of Bordetella pertussis adenylate cyclase (CyaA) (protein, UniProt P15746 7-140)
chain: FTLLEIMVVIVILGVLASLVVPNLMGNKEKADRQKVVSDLVALEGALDMYKLDNSRYPTTEQGLQALVSAPSAEPHARNYPEGGYIRRLPQDPWGSDYQLLSPGQHGQVDIFSLGPDGVPESNDDIGNWTIGKK
For B1, the binding entry is “no binding”.
